This is one part of the list. The calls rarely recur for the same compound in another form.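 In K562 cells expressing nanoluciferase-fused kinases, luminescence was recorded at 4 h intervals between 2 and 18 h, normalized as percent of control with DMSO at 100% and a positive control at 0%. A significant (2 sigma) signal drop marks a time point as decreased. The authors' rule for a hit is not shown and takes in more than the number of time points.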
Target: DYRK2 (UniProt Q92630)
Experiment: kinase-Nluc reporter destabilization hit call (1 = scored as downregulated) (binary); higher = compound decreases kinase abundance
Conditions: K562; 2-18 h

Sequences of proteins named here, by UniProt entry; tags and fusion partners are left off. A change or cut given only in a name is not applied to a line headed by its entry.
UniProt Q92630: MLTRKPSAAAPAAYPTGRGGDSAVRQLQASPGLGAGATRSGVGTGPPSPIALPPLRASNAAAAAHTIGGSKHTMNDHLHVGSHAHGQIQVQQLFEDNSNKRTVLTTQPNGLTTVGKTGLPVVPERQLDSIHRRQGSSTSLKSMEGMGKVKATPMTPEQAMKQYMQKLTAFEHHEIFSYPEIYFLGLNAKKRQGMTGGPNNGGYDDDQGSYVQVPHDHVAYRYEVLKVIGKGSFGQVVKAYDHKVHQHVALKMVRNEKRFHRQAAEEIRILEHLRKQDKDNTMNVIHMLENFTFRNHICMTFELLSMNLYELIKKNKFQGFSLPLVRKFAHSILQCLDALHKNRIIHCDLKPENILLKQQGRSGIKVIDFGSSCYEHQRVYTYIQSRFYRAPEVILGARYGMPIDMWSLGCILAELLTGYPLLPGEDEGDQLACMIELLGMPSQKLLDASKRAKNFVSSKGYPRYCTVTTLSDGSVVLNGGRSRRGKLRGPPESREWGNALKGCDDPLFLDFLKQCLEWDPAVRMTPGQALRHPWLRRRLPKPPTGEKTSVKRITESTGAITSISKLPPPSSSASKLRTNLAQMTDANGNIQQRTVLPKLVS

Compound | kinase-Nluc reporter destabilization hit call
C=CC(=O)Nc1ccc2[nH]c(=O)n(C3CCN(Cc4ccc(-c5nc6cc[nH]c(=O)c6cc5-c5ccccc5)cc4)CC3)c2c1 [Borussertib] (10 µM) | inactive: 0
C[S+]([O-])/C=C/CCN=C=S (stereo not given) [Sulforaphene] (10 µM) | inactive: 0
CC1=C[C@]23C(=O)[C@@H](C=C(CO)[C@@H](O)[C@]2(O)[C@H]1O)[C@H]1[C@@H](C[C@H]3C)C1(C)C [Ingenol] (10 µM) | inactive: 0
CCCCCCCCCCCCCCCCOC[C@H](COP(=O)([O-])OCC[N+](C)(C)C)OC(C)=O (10 µM) | inactive: 0
Cc1ccccc1-n1c(Cn2cnc3c(N)ncnc32)nc2cccc(C)c2c1=O (10 µM) | inactive: 0
COc1ccc2c(c1)[nH]c1c(C)nccc12 [Harmine] (10 µM) | inactive: 0
O=C(N[C@@H](COc1ccc2[nH]c(=O)[nH]c2c1)c1ccccc1)c1cccn(Cc2ccc(F)c(F)c2)c1=O (2.5 µM) | inactive: 0
COc1cc2c(cc1F)C(c1ccccc1Cl)=Nc1c(n[nH]c1C)N2 (0.5 µM) | inactive: 0
N#CC(C#N)=Cc1ccc(O)c(O)c1 [Tyrphostin 23] (10 µM) | inactive: 0
N#CC(C#N)=NNc1cccc(Cl)c1 (2.5 µM) | inactive: 0

Pulled one by one from the entries so far:
Compound | kinase-Nluc reporter destabilization hit call
CC1=C[C@]23C(=O)[C@@H](C=C(CO)[C@@H](O)[C@]2(O)[C@H]1O)[C@H]1[C@@H](C[C@H]3C)C1(C)C [Ingenol] (10 µM) | inactive: 0
COc1cc2c(cc1F)C(c1ccccc1Cl)=Nc1c(n[nH]c1C)N2 (0.5 µM) | inactive: 0

From the supplement of paper PMC12823440, “Inhibitors supercharge kinase turnover through native proteolytic circuits” (Nature, 2025)
